The supplement of paper PMC5355238
Structures can show the parent of a compound that is named as a salt. The list shows a part of the results. Most values lie at the level of the controls, where differences are scatter.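 Reh, a human leukemia cell line, is read out by flow cytometry as the median γH2AX antibody signal in S-phase cells; the score counts standard deviations from the median difference of each paired plate set. Scores above 2.5 were candidate hits; scores below -2 mark compounds lowering MK1775-induced damage.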

system: Reh; assay: Z' of S-phase gammaH2AX difference (drug + MK1775 minus drug alone) (Z-score); higher = stronger synergistic S-phase DNA damage with MK1775; conditions: MK1775 concentration 400 nM; first compound 10 µM; 4 h

Q: With `NC(=O)c1cc(N2CC2)c([N+](=O)[O-])cc1[N+](=O)[O-]` + C=CCn1c(=O)c2cnc(Nc3ccc(N4CCN(C)CC4)cc3)nc2n1-c1cccc(C(C)(C)O)n1 [MK1775] as the compound, how does the “Z' of S-phase gammaH2AX difference (Z-score)” value read?
A: The value was inactive: 0.388.

Q: `Cn1cc(C2=C(c3cn(C4CCN(Cc5ccccn5)CC4)c4ccccc34)C(=O)NC2=O)c2ccccc21` + C=CCn1c(=O)c2cnc(Nc3ccc(N4CCN(C)CC4)cc3)nc2n1-c1cccc(C(C)(C)O)n1 [MK1775] was tested. Which “Z' of S-phase gammaH2AX difference (Z-score)” value did it give?
A: The value was inactive: -0.0111.

Q: With `CN1CC[C@]2(CCN3CCc4c(oc5ccccc45)[C@@H]3C2)N(C)C1=O` + C=CCn1c(=O)c2cnc(Nc3ccc(N4CCN(C)CC4)cc3)nc2n1-c1cccc(C(C)(C)O)n1 [MK1775] as the compound, how does the “Z' of S-phase gammaH2AX difference (Z-score)” value read?
A: Its value is inactive: 0.592.

Q: For `N#CC(C#N)=Cc1ccc(O)c(O)c1` [Tyrphostin 23] + C=CCn1c(=O)c2cnc(Nc3ccc(N4CCN(C)CC4)cc3)nc2n1-c1cccc(C(C)(C)O)n1 [MK1775], which “Z' of S-phase gammaH2AX difference (Z-score)” value is on record?
A: Its value is inactive: 0.636.

Q: With `NC(=O)CI` [Iodoacetamide] + C=CCn1c(=O)c2cnc(Nc3ccc(N4CCN(C)CC4)cc3)nc2n1-c1cccc(C(C)(C)O)n1 [MK1775] as the compound, how does the “Z' of S-phase gammaH2AX difference (Z-score)” value read?
A: Its value is inactive: 0.799.

Q: `CC[C@@H](C(=O)[C@@H](C)[C@@H](O)[C@H](C)[C@@H]1O[C@@H]([C@@H](CC)C(=O)O)CC[C@@H]1C)[C@H]1O[C@]2(C=C[C@@H](O)[C@]3(CC[C@@](C)([C@H]4CC[C@](O)(CC)[C@H](C)O4)O3)O2)[C@H](C)C[C@@H]1C` [Salinomycin (Procoxacin)] + C=CCn1c(=O)c2cnc(Nc3ccc(N4CCN(C)CC4)cc3)nc2n1-c1cccc(C(C)(C)O)n1 [MK1775] was tested. Which “Z' of S-phase gammaH2AX difference (Z-score)” value did it give?
A: Its value is inactive: 0.233.

Q: For `COc1ccc2[nH]c3c(c2c1)CCNC3` [6-Methoxy-1,2,3,4-tetrahydro-9H-pyrido[3,4b] indole] + C=CCn1c(=O)c2cnc(Nc3ccc(N4CCN(C)CC4)cc3)nc2n1-c1cccc(C(C)(C)O)n1 [MK1775], which “Z' of S-phase gammaH2AX difference (Z-score)” value is on record?
A: Its value is inactive: -0.424.

Q: Which “Z' of S-phase gammaH2AX difference (Z-score)” value does the source give for `CN1[C@@H]2C[C@@H](OC(=O)[C@H](CO)c3ccccc3)C[C@H]1[C@@H]1O[C@@H]12` [(-)-Scopolamine hydrobromide] + C=CCn1c(=O)c2cnc(Nc3ccc(N4CCN(C)CC4)cc3)nc2n1-c1cccc(C(C)(C)O)n1 [MK1775] here?
A: The value was inactive: 0.39.

Q: Which “Z' of S-phase gammaH2AX difference (Z-score)” value does the source give for `COc1cc(CC(C)N)c(OC)cc1I` (stereo not drawn) [(?)-DOI hydrochloride] + C=CCn1c(=O)c2cnc(Nc3ccc(N4CCN(C)CC4)cc3)nc2n1-c1cccc(C(C)(C)O)n1 [MK1775] here?
A: Its value is inactive: 0.989.

Q: With `O=C(O)[C@@H]1[C@H](C(=O)O)[C@H]2CC[C@@H]1O2` [Endothall] + C=CCn1c(=O)c2cnc(Nc3ccc(N4CCN(C)CC4)cc3)nc2n1-c1cccc(C(C)(C)O)n1 [MK1775] as the compound, how does the “Z' of S-phase gammaH2AX difference (Z-score)” value read?
A: The value was inactive: 0.26.

Q: With `NNCc1cccc(O)c1` [3-Hydroxybenzylhydrazine dihydrochloride] + C=CCn1c(=O)c2cnc(Nc3ccc(N4CCN(C)CC4)cc3)nc2n1-c1cccc(C(C)(C)O)n1 [MK1775] as the compound, how does the “Z' of S-phase gammaH2AX difference (Z-score)” value read?
A: Its value is inactive: -1.29.

Q: For `CCCN(CCC)[C@@H]1CCc2c(F)ccc(O)c2C1` [R(+)-UH-301 hydrochloride] + C=CCn1c(=O)c2cnc(Nc3ccc(N4CCN(C)CC4)cc3)nc2n1-c1cccc(C(C)(C)O)n1 [MK1775], which “Z' of S-phase gammaH2AX difference (Z-score)” value is on record?
A: Its value is inactive: 0.147.

Q: How did the “Z' of S-phase gammaH2AX difference (Z-score)” value turn out when `N[C@@H]1C[C@H]1c1ccccc1` [Tranylcypromine hydrochloride] + C=CCn1c(=O)c2cnc(Nc3ccc(N4CCN(C)CC4)cc3)nc2n1-c1cccc(C(C)(C)O)n1 [MK1775] was run?
A: Its value is inactive: -0.432.

Q: With `CN1CCc2cc(O)cc3c2[C@H]1Cc1ccc(O)c(O)c1-3` [R(-)-2,10,11-Trihydroxyaporphine hybrobromide] + C=CCn1c(=O)c2cnc(Nc3ccc(N4CCN(C)CC4)cc3)nc2n1-c1cccc(C(C)(C)O)n1 [MK1775] as the compound, how does the “Z' of S-phase gammaH2AX difference (Z-score)” value read?
A: The value was inactive: -0.308.

Q: For `NC(CP(=O)(O)O)C(=O)O` (stereo not drawn) [(?)-2-Amino-3-phosphonopropionic acid] + C=CCn1c(=O)c2cnc(Nc3ccc(N4CCN(C)CC4)cc3)nc2n1-c1cccc(C(C)(C)O)n1 [MK1775], which “Z' of S-phase gammaH2AX difference (Z-score)” value is on record?
A: The value was inactive: -0.474.

Q: For `O=C1CC[C@@]2(O)[C@H]3Cc4ccc(O)c5c4[C@@]2(CCN3CC2CC2)[C@H]1O5` [Naltrexone hydrochloride] + C=CCn1c(=O)c2cnc(Nc3ccc(N4CCN(C)CC4)cc3)nc2n1-c1cccc(C(C)(C)O)n1 [MK1775], which “Z' of S-phase gammaH2AX difference (Z-score)” value is on record?
A: Its value is inactive: -0.0146.

Q: How did the “Z' of S-phase gammaH2AX difference (Z-score)” value turn out when `NCC(CC(=O)O)c1ccc(Cl)cc1` (stereo not drawn) [(?)-Baclofen] + C=CCn1c(=O)c2cnc(Nc3ccc(N4CCN(C)CC4)cc3)nc2n1-c1cccc(C(C)(C)O)n1 [MK1775] was run?
A: Its value is inactive: 0.454.

Q: Which “Z' of S-phase gammaH2AX difference (Z-score)” value does the source give for `CN1CC[C@@]2(C)c3cc(O)ccc3N(C)C12` (single isomer, unassigned; (-)) [(-)-Eseroline fumarate] + C=CCn1c(=O)c2cnc(Nc3ccc(N4CCN(C)CC4)cc3)nc2n1-c1cccc(C(C)(C)O)n1 [MK1775] here?
A: The value was inactive: -0.401.

Q: With `CC(C)[C@]12O[C@H]1[C@@H]1O[C@]13[C@]1(O[C@H]1C[C@H]1C4=C(CC[C@@]13C)C(=O)OC4)[C@@H]2O` [Triptolide] + C=CCn1c(=O)c2cnc(Nc3ccc(N4CCN(C)CC4)cc3)nc2n1-c1cccc(C(C)(C)O)n1 [MK1775] as the compound, how does the “Z' of S-phase gammaH2AX difference (Z-score)” value read?
A: The value was inactive: -0.83.

Q: Which “Z' of S-phase gammaH2AX difference (Z-score)” value does the source give for `CC(=O)[C@H]1CC[C@H]2[C@@H]3CC[C@H]4C[C@H](O)CC[C@]4(C)[C@H]3CC[C@]12C` [5alpha-Pregnan-3alpha-ol-20-one] + C=CCn1c(=O)c2cnc(Nc3ccc(N4CCN(C)CC4)cc3)nc2n1-c1cccc(C(C)(C)O)n1 [MK1775] here?
A: Its value is inactive: 1.15.

Q: `CCN1C[C@]2(C)CC[C@H](O)[C@]34C1[C@@H](C[C@H]23)[C@@]1(O)C[C@H](OC)[C@H]2C[C@@H]4[C@@H]1[C@H]2O` [Karakoline] + C=CCn1c(=O)c2cnc(Nc3ccc(N4CCN(C)CC4)cc3)nc2n1-c1cccc(C(C)(C)O)n1 [MK1775] was tested. Which “Z' of S-phase gammaH2AX difference (Z-score)” value did it give?
A: Its value is inactive: 0.274.

Q: How did the “Z' of S-phase gammaH2AX difference (Z-score)” value turn out when `CCCN1CCC[C@@H](c2cccc(C#N)c2)C1` [S(-)-DS 121 hydrochloride] + C=CCn1c(=O)c2cnc(Nc3ccc(N4CCN(C)CC4)cc3)nc2n1-c1cccc(C(C)(C)O)n1 [MK1775] was run?
A: The value was inactive: -0.0704.

Q: For `CC(NC(C)(C)C)C(=O)c1cccc(Cl)c1` (stereo not drawn) [Bupropion hydrochloride] + C=CCn1c(=O)c2cnc(Nc3ccc(N4CCN(C)CC4)cc3)nc2n1-c1cccc(C(C)(C)O)n1 [MK1775], which “Z' of S-phase gammaH2AX difference (Z-score)” value is on record?
A: Its value is inactive: 0.184.

Q: For `Oc1ccc2c3c1O[C@H]1c4[nH]c5ccccc5c4C[C@@]4(O)[C@@H](C2)N(CC2CC2)CC[C@]314` [Naltrindole hydrochloride] + C=CCn1c(=O)c2cnc(Nc3ccc(N4CCN(C)CC4)cc3)nc2n1-c1cccc(C(C)(C)O)n1 [MK1775], which “Z' of S-phase gammaH2AX difference (Z-score)” value is on record?
A: Its value is inactive: -0.461.

Q: `CN1[C@@H]2CC[C@H]1C[C@@H](OC(=O)c1cc(Cl)cc(Cl)c1)C2` [3-Tropanyl-3,5-dichlorobenzoate] + C=CCn1c(=O)c2cnc(Nc3ccc(N4CCN(C)CC4)cc3)nc2n1-c1cccc(C(C)(C)O)n1 [MK1775] was tested. Which “Z' of S-phase gammaH2AX difference (Z-score)” value did it give?
A: The value was inactive: -0.405.

Q: With `CC(C)(C)c1cc(C=C(C#N)C#N)cc(C(C)(C)C)c1O` [Tyrphostin A9] + C=CCn1c(=O)c2cnc(Nc3ccc(N4CCN(C)CC4)cc3)nc2n1-c1cccc(C(C)(C)O)n1 [MK1775] as the compound, how does the “Z' of S-phase gammaH2AX difference (Z-score)” value read?
A: The value was inactive: -1.19.

Q: For `O=C(O)c1nn(Cc2ccc(Cl)cc2Cl)c2ccccc12` [Lonidamine] + C=CCn1c(=O)c2cnc(Nc3ccc(N4CCN(C)CC4)cc3)nc2n1-c1cccc(C(C)(C)O)n1 [MK1775], which “Z' of S-phase gammaH2AX difference (Z-score)” value is on record?
A: Its value is inactive: -0.584.

Q: Which “Z' of S-phase gammaH2AX difference (Z-score)” value does the source give for `O=[N+]([O-])c1ccc(O[C@@H]2O[C@H](CO)[C@@H](O)[C@H](O)[C@H]2F)c([N+](=O)[O-])c1` [2,4-Dinitrophenyl 2-fluoro-2-deoxy-beta-D-glucopyranoside] + C=CCn1c(=O)c2cnc(Nc3ccc(N4CCN(C)CC4)cc3)nc2n1-c1cccc(C(C)(C)O)n1 [MK1775] here?
A: The value was inactive: -0.221.

Q: Which “Z' of S-phase gammaH2AX difference (Z-score)” value does the source give for `CC[C@@H](CO)NC(=O)[C@@H]1C=C2c3cccc4[nH]cc(c34)C[C@H]2N(C)C1` [Methylergonovine maleate] + C=CCn1c(=O)c2cnc(Nc3ccc(N4CCN(C)CC4)cc3)nc2n1-c1cccc(C(C)(C)O)n1 [MK1775] here?
A: The value was inactive: -0.427.

Q: With `CCC1(C2=NCCN2)Cc2ccccc2O1` (stereo not drawn) [Efaroxan hydrochloride] + C=CCn1c(=O)c2cnc(Nc3ccc(N4CCN(C)CC4)cc3)nc2n1-c1cccc(C(C)(C)O)n1 [MK1775] as the compound, how does the “Z' of S-phase gammaH2AX difference (Z-score)” value read?
A: Its value is inactive: -0.318.

Q: How did the “Z' of S-phase gammaH2AX difference (Z-score)” value turn out when `CCOC(=O)c1ncn2c1[C@@H]1CCCN1C(=O)c1cc(OC)ccc1-2` + C=CCn1c(=O)c2cnc(Nc3ccc(N4CCN(C)CC4)cc3)nc2n1-c1cccc(C(C)(C)O)n1 [MK1775] was run?
A: Its value is inactive: 0.

Q: How did the “Z' of S-phase gammaH2AX difference (Z-score)” value turn out when `NC(N)=Nc1ccc2[nH]c3c(c2c1)C[C@@]1(O)[C@H]2Cc4ccc(O)c5c4[C@@]1(CCN2CC1CC1)[C@H]3O5` [Guanidinyl-naltrindole di-trifluoroacetate] + C=CCn1c(=O)c2cnc(Nc3ccc(N4CCN(C)CC4)cc3)nc2n1-c1cccc(C(C)(C)O)n1 [MK1775] was run?
A: Its value is inactive: -0.284.

Q: With `C[N+]1(C)CCc2cc3c(cc2[C@H]1[C@@H]1OC(=O)c2c1ccc1c2OCO1)OCO3` [(-)-Bicuculline methbromide, 1(S), 9(R)] + C=CCn1c(=O)c2cnc(Nc3ccc(N4CCN(C)CC4)cc3)nc2n1-c1cccc(C(C)(C)O)n1 [MK1775] as the compound, how does the “Z' of S-phase gammaH2AX difference (Z-score)” value read?
A: The value was inactive: 0.578.
